The source of these data is paper PMC7868338, “Identification of Functional Interactome of Colistin Resistance Protein MCR-1 in Escherichia coli” (Frontiers in Microbiology, 2020).

By UniProt entry, the sequences of proteins in these tests, tags left out. Residues count along the entry.
UniProt P0A7J3: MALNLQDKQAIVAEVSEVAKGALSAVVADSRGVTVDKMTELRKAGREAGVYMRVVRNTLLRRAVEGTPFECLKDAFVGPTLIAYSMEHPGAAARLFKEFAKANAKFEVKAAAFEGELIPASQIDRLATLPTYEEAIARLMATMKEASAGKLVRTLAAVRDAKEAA
UniProt P0AGE0: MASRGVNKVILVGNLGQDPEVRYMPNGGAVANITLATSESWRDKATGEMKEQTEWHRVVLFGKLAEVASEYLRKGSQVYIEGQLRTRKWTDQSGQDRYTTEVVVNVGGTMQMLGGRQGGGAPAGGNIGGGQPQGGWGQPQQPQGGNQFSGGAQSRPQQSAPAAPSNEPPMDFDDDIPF
UniProt P0A9K9: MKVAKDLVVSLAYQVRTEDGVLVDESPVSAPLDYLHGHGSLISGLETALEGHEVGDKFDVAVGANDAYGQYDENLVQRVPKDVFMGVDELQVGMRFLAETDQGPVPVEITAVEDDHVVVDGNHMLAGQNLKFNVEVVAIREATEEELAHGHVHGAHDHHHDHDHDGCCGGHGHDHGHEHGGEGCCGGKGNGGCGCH
UniProt P0AE06, residues 25-397: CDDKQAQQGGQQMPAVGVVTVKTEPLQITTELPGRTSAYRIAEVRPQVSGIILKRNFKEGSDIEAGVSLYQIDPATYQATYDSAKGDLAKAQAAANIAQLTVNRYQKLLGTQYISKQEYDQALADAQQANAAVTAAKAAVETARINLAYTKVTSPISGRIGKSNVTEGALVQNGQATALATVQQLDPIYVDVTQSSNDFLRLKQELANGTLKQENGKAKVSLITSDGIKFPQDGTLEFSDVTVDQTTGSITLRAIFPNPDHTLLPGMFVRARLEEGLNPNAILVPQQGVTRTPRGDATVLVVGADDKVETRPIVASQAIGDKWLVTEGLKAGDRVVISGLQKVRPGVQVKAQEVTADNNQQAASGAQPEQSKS
UniProt P0AEZ3: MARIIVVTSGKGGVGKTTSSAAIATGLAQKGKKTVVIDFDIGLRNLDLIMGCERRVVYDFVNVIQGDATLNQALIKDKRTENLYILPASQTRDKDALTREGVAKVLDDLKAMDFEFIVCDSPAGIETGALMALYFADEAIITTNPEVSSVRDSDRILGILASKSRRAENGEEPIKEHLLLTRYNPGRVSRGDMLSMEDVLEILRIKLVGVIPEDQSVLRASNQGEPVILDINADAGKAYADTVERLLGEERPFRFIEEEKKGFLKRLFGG
UniProt P0ABA0: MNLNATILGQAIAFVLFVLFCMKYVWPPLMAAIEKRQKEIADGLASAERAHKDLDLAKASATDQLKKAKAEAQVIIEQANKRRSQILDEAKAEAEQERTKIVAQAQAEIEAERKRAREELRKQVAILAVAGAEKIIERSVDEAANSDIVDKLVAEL
UniProt P0A6X7: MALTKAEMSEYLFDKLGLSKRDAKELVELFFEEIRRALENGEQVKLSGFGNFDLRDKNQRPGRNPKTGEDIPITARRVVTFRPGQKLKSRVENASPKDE
UniProt P02925, residues 26-296: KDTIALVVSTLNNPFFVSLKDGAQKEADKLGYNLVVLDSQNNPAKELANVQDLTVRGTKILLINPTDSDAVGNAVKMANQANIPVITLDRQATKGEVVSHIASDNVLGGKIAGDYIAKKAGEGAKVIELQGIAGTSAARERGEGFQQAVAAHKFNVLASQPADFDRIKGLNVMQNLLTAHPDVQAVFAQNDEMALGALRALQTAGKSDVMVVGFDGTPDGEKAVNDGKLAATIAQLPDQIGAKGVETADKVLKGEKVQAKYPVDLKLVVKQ
UniProt P64596, residues 19-191: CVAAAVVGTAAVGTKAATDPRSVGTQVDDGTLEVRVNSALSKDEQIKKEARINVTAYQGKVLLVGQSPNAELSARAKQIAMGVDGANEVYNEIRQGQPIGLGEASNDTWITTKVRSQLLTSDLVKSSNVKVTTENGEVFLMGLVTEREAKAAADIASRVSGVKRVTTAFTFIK
UniProt P0A6Y1: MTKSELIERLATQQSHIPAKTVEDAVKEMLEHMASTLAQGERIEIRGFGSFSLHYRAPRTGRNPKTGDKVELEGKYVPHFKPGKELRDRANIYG
UniProt P0AG30: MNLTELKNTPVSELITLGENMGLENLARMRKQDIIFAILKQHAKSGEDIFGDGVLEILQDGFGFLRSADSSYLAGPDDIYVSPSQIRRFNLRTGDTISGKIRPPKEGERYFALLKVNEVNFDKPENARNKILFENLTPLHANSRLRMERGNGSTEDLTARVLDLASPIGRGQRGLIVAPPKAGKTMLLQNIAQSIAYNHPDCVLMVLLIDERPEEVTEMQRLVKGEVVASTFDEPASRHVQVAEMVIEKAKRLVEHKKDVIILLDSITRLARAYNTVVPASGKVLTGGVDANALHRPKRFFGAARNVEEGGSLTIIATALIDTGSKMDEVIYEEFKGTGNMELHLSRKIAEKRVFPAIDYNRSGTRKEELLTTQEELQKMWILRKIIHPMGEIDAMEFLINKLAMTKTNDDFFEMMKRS
UniProt P0A910, residues 22-346: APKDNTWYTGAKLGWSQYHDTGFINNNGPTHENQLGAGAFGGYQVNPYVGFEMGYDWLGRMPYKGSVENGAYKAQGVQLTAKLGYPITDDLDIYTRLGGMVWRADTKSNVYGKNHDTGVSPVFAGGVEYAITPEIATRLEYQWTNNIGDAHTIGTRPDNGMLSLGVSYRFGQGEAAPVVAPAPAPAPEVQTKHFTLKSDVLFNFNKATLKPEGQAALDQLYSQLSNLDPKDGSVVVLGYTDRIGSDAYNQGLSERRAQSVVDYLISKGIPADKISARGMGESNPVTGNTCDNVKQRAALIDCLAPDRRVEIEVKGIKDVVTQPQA

Results are given in words; binding and its absence hold for the method and conditions named. Binding seen in cells or lysates may run through a third protein. A yes stands for co-enrichment or nearness to the bait. Other partners may have been found.

T1: MCR-1 full-length protein (E. coli (strain SHP45))
T1 sequence: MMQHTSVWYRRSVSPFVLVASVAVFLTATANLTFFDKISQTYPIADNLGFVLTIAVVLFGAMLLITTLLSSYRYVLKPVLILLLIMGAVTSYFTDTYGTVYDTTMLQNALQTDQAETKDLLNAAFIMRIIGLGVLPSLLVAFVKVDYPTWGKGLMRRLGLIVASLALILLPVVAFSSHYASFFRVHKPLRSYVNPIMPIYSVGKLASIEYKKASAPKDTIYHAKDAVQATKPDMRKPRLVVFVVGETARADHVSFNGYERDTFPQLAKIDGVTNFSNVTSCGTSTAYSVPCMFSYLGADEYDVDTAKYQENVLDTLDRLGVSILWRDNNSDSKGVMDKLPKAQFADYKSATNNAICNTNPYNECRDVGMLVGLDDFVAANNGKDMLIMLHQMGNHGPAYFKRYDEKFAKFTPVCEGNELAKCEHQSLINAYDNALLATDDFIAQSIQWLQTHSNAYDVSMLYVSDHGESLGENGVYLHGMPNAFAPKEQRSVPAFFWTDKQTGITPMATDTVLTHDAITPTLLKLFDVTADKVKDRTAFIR

B1: Protein YihD (protein, UniProt P0ADP9 1-89)
chain: MKCKRLNEVIELLQPAWQKEPDLNLLQFLQKLAKESGFDGELADLTDDILIYHLKMRDSAKDAVIPGLQKDYEEDFKTALLRARGVIKE
B2: Outer membrane protein TolC (protein, UniProt P02930 23-493)
chain: ENLMQVYQQARLSNPELRKSAADRDAAFEKINEARSPLLPQLGLGADYTYSNGYRDANGINSNATSASLQLTQSIFDMSKWRALTLQEKAAGIQDVTYQTDQQTLILNTATAYFNVLNAIDVLSYTQAQKEAIYRQLDQTTQRFNVGLVAITDVQNARAQYDTVLANEVTARNNLDNAVEQLRQITGNYYPELAALNVENFKTDKPQPVNALLKEAEKRNLSLLQARLSQDLAREQIRQAQDGHLPTLDLTASTGISDTSYSGSKTRGAAGTQYDDSNMGQNKVGLSFSLPIYQGGMVNSQVKQAQYNFVGASEQLESAHRSVVQTVRSSFNNINASISSINAYKQAVVSAQSSLDAMEAGYSVGTRTIVDVLDATTTLYNAKQELANARYNYLINQLNIKSALGTLNEQDLLALNNALSKPVSTNPENVAPQTPEQNAIADGYAPDSPAPVVQQTSARTTTSNGHNPFRN
B3: Small heat shock protein IbpA (protein, UniProt P0C054 1-137)
chain: MRNFDLSPLYRSAIGFDRLFNHLENNQSQSNGGYPPYNVELVDENHYRIAIAVAGFAESELEITAQDNLLVVKGAHADEQKERTYLYQGIAERNFERKFQLAENIHVRGANLVNGLLYIDLERVIPEAKKPRRIEIN
B4: Uncharacterized protein YgiM (protein, UniProt P0ADT8 23-206)
chain: EETRYVSDELNTWVRSGPGDHYRLVGTVNAGEEVTLLQTDANTNYAQVKDSSGRTAWIPLKQLSTEPSLRSRVPDLENQVKTLTDKLTNIDNTWNQRTAEMQQKVAQSDSVINGLKEENQKLKNELIVAQKKVDAASVQLDDKQRTIIMQWFMYGGGVLGLGLLLGLVLPHLIPSRKRKDRWMN
B5: Protein ElaB (protein, UniProt P0AEH5 1-101)
chain: MSNQFGDTRIDDDLTLLSETLEEVLRSSGDPADQKYVELKARAEKALDDVKKRVSQASDSYYYRAKQAVYRADDYVHEKPWQGIGVGAAVGLVLGLLLARR

The test deals with T1, MCR-1 full-length protein (E. coli (strain SHP45)). Briefly: affinity purification with mass spectrometry; Co-IP with anti-MCR-1 mAb 3G4 and G-Sepharose from E. coli lysates (50 mM Tris-HCl pH 7.5, 300 mM NaCl, 1 mM PMSF, 1% DDM), 4°C; co-precipitates eluted with 0.2 M glycine pH 2.3 and identified by nano LC-MS/MS; anti-IgG and empty vector pull-downs as negative controls.
In the case of “50S ribosomal protein L10 (from UniProt P0A7J3 1-165)”, the binding entry is “binds”.

With “Single-stranded DNA-binding protein (from UniProt P0AGE0 1-178)”, the binding result was “binds”.

Regarding “50S ribosomal protein L7/L12 (from UniProt P0A7K2 1-121)”, the binding entry was “binds”.

Turning to “FKBP-type peptidyl-prolyl cis-trans isomerase SlyD (from UniProt P0A9K9 1-196)”, the binding result was “binds”.

For the molecule “Multidrug efflux pump subunit AcrA (from UniProt P0AE06 25-397)”, the binding entry is “binds”.

As for “Septum site-determining protein MinD (from UniProt P0AEZ3 1-270)”, the binding entry is on record as “binds”.

In the case of “ATP synthase subunit b (from UniProt P0ABA0 1-156)”, the binding result is listed as “binds”.

Turning to “Integration host factor subunit alpha (from UniProt P0A6X7 1-99)”, the binding entry is “binds”.

“Ribose import binding protein RbsB (from UniProt P02925 26-296)”: the binding result was “binds”.

“Uncharacterized protein YraP (from UniProt P64596 19-191)”: the binding entry was “binds”.

As for “Integration host factor subunit beta (from UniProt P0A6Y1 1-94)”, the binding entry was “binds”.

For the molecule “Transcription termination factor Rho (from UniProt P0AG30 1-419)”, the binding result is “binds”.

As to “Outer membrane protein A (from UniProt P0A910 22-346)”, the binding entry is given as “binds”.

With B1, the binding entry was “binds”.

In the case of B2, the binding entry was “binds”.

For the molecule B3, the binding result is given as “binds”.

In the case of B4, the binding entry was “binds”.

B5: the binding entry is listed as “binds”.
